Earlier results in US12390498B2, “Treatment of clostridium difficile infection” (Vedanta Biosciences, Inc., priority 2016, dated 2025).
Some of these results come from one statement about several compounds together.

Test system: Clostridium difficile infection (CDI)
Settings: cited from earlier work

Row | SMILES | patients initially responding experiencing a clinical recurrence after antibiotic cessation
1 | Cc1ncc([N+](=O)[O-])n1CCO [metronidazole] | up to 30%
2 | CN[C@H](CC(C)C)C(=O)N[C@H]1C(=O)N[C@@H](CC(N)=O)C(=O)N[C@H]2C(=O)N[C@H]3C(=O)N[C@H](C(=O)N[C@H](C(=O)O)c4cc(O)cc(O)c4-c4cc3ccc4O)[C@H](O)c3ccc(c(Cl)c3)Oc3cc2cc(c3O[C@@H]2O[C@H](CO)[C@@H](O)[C@H](O)[C@H]2O[C@H]2C[C@](C)(N)[C@H](O)[C@H](C)O2)Oc2ccc(cc2Cl)[C@H]1O [vancomycin] | up to 30%
